# Data published in the supplement of paper PMC11732987, “Enantioselective OTUD7B fragment discovery through chemoproteomics screening and high-throughput optimisation” (Communications Chemistry, 2025).
# The chains behind the UniProt entries cited, without tags or fusion partners. Where a name states a change or a piece, a line headed by the entry shows the natural chain unless it says otherwise. Residues count along the entry.
# UniProt P05141: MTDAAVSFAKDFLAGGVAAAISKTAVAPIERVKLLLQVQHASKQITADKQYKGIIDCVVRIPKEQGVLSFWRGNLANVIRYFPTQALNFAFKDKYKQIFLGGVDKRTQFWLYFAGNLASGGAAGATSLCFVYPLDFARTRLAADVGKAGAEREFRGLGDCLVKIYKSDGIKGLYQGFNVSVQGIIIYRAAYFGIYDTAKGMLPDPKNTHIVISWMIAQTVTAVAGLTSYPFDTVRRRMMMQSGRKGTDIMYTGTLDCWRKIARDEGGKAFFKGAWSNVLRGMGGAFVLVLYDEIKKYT
# UniProt Q15043, 277-297: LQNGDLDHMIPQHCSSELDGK
# UniProt O15431: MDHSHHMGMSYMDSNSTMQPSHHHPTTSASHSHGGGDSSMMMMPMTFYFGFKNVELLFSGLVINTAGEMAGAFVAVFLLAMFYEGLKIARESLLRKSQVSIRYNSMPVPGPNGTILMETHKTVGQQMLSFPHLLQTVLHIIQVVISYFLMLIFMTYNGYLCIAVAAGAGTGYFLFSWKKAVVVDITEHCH
# UniProt Q9NZC9: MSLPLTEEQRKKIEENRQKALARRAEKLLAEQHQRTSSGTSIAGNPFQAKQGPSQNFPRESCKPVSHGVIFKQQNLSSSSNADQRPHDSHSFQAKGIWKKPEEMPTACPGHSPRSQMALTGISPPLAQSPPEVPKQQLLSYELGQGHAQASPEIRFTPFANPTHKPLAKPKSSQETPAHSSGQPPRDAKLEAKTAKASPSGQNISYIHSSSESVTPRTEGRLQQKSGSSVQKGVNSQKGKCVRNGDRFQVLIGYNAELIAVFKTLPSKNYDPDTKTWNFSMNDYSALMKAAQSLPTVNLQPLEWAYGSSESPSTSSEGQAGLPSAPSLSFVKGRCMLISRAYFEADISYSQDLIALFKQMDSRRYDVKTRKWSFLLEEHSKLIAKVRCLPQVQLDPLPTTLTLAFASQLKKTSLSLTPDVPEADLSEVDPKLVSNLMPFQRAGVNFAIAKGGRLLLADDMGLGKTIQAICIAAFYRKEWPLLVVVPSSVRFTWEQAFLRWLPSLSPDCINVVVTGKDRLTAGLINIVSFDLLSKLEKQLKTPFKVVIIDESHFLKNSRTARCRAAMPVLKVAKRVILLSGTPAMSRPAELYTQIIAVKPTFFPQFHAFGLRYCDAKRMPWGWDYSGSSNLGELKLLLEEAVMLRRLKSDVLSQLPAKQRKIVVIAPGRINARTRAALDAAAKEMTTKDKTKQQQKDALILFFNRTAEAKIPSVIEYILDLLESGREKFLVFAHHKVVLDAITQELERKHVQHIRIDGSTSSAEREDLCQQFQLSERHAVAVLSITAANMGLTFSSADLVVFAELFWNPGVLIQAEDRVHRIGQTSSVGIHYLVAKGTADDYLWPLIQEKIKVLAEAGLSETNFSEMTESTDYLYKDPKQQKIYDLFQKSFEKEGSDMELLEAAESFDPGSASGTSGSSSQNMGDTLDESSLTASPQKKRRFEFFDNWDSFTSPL
# UniProt Q8N357: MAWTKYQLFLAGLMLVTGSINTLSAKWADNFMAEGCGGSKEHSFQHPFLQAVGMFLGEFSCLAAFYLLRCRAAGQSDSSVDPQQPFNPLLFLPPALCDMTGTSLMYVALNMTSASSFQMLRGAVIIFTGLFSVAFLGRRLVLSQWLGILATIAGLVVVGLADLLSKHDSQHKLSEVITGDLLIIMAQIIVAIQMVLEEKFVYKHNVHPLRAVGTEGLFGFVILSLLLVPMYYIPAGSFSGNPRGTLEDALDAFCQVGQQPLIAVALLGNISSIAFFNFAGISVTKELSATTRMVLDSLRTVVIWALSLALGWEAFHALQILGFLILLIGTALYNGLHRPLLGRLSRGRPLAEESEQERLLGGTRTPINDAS
# UniProt P12235: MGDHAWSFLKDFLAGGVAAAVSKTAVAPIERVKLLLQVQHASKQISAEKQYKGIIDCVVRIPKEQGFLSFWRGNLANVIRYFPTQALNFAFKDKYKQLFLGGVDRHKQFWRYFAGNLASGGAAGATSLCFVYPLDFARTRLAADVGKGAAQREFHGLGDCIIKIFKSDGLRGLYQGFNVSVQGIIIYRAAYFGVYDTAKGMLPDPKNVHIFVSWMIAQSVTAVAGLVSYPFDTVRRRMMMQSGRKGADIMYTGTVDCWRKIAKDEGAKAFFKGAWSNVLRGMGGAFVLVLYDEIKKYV
# UniProt Q9NVC3: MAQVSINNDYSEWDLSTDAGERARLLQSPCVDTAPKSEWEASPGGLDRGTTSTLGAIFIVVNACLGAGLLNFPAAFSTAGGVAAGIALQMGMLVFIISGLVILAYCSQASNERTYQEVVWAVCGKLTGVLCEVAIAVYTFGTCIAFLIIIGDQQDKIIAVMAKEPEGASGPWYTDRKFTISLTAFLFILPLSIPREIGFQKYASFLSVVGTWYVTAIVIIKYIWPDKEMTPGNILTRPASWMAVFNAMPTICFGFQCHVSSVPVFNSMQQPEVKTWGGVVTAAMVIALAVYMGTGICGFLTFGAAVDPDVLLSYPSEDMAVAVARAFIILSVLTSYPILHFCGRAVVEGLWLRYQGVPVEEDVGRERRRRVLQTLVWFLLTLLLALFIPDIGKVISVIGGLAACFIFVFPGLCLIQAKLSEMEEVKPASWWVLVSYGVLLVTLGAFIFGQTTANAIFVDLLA
# UniProt P12755: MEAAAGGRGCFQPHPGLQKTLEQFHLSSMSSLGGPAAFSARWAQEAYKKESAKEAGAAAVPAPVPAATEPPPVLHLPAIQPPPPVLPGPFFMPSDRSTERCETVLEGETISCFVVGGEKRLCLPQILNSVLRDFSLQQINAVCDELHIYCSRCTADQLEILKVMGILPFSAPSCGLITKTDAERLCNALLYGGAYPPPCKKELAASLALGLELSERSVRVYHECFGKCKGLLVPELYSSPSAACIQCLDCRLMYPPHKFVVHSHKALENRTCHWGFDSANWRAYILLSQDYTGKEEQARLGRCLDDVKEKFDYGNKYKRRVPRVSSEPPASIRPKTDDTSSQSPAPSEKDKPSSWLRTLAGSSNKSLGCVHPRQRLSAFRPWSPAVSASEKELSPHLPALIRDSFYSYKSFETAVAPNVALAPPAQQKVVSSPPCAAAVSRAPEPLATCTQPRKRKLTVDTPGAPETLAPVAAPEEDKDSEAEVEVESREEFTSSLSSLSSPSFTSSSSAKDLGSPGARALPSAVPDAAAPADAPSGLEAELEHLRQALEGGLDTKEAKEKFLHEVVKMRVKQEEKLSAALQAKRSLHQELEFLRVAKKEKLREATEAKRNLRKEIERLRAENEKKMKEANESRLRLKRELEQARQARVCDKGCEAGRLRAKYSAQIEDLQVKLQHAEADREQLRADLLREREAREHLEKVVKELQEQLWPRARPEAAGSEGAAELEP
# UniProt Q9H4L7, 88-113: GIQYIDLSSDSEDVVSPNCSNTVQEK
# UniProt Q96BD8: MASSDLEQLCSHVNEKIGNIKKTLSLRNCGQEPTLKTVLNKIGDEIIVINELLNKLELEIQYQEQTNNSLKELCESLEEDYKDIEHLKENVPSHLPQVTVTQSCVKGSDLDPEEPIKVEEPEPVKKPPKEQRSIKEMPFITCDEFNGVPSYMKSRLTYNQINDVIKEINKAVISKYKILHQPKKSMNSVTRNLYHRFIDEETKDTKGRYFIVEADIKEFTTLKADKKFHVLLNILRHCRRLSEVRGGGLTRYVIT
# UniProt Q9BWU0, 647-671: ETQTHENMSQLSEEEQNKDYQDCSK
# UniProt Q96DI7: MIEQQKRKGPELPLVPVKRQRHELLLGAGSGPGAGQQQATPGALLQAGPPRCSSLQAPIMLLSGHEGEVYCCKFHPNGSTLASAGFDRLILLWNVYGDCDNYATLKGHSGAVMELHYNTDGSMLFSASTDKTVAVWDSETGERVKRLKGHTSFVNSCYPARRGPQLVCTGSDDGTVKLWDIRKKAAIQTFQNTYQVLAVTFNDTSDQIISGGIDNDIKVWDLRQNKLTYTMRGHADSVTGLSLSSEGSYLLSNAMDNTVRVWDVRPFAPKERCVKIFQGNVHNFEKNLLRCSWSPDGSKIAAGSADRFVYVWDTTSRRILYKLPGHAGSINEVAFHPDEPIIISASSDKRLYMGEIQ
# UniProt Q8ND83: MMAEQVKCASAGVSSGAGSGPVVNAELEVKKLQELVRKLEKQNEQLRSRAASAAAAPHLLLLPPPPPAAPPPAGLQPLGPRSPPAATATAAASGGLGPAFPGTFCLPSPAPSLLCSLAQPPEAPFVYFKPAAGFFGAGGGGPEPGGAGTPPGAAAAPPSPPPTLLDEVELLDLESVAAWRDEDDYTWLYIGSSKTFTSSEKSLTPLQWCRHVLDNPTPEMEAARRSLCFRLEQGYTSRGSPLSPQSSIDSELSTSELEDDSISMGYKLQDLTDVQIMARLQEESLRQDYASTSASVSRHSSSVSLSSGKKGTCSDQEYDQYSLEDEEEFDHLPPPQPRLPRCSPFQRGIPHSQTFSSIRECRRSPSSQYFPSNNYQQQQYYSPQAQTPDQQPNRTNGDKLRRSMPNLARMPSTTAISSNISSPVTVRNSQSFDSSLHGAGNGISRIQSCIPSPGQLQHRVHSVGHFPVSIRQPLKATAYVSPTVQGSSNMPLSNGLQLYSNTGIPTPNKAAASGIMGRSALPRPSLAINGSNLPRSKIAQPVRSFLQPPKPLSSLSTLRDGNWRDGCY
# UniProt Q96QE2, 26-66: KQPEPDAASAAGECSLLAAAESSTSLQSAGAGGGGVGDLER
# UniProt Q5SQN1: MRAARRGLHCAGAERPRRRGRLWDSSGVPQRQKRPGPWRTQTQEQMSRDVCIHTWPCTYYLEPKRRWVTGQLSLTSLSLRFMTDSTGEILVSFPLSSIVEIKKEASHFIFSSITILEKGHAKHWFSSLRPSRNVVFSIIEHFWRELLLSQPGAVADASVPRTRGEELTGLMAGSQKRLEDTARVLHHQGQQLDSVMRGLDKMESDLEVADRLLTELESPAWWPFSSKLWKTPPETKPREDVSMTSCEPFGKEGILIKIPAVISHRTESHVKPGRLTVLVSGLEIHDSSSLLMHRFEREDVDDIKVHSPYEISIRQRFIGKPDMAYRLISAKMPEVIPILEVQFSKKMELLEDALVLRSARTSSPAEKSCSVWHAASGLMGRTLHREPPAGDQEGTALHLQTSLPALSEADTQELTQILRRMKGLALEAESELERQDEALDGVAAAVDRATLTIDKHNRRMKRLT
# UniProt Q00796: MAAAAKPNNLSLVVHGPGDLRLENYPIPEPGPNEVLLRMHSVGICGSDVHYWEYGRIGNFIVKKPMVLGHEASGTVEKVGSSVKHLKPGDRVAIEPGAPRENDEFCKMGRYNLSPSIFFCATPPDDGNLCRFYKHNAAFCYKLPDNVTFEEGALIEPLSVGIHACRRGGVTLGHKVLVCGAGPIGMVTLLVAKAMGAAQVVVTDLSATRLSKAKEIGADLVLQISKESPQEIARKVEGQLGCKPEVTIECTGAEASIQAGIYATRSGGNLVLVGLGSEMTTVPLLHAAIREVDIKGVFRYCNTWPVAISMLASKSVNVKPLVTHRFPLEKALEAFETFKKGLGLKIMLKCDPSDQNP
# UniProt Q8TAD8: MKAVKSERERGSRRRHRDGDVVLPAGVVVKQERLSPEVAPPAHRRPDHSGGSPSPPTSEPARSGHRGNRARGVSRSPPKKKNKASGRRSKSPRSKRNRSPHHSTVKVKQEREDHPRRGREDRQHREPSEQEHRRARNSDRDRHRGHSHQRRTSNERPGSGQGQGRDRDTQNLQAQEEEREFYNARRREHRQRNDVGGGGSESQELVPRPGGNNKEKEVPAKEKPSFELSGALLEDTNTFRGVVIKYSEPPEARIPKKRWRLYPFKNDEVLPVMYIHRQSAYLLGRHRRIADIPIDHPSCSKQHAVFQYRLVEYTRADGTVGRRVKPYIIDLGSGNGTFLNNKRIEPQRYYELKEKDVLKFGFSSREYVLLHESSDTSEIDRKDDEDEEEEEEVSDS
# UniProt O43772: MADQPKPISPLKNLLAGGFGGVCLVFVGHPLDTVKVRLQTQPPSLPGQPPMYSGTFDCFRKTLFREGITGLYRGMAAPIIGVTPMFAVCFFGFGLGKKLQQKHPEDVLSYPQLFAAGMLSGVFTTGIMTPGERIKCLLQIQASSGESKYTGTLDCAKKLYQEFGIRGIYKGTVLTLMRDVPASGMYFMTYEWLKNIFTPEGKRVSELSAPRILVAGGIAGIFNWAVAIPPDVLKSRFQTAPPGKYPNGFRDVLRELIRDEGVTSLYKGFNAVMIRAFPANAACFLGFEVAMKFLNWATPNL
# UniProt Q9H4F8: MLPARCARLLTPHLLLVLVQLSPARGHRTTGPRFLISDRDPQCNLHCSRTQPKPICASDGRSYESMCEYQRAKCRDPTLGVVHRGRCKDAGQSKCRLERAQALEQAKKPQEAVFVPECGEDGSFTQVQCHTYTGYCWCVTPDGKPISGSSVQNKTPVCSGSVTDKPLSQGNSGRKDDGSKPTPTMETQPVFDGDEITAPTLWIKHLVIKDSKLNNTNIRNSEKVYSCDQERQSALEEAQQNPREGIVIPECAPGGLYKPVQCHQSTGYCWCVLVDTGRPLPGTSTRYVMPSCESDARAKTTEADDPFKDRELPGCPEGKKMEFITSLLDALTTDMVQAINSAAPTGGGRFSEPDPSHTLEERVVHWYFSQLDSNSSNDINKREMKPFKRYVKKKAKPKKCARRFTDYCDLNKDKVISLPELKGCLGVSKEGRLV
# This is one part of the list. The data scatter; read single values as rough.
# How the values were obtained:
# [1] = compound: ClCC(=O)N[C@@H]1CCCc2ccccc12; test: log2 mean competition ratio of IA-DTB cysteine labelling (DMSO/compound) (log2 ratio); higher = stronger cysteine engagement by compound; settings: treatment time: 4 h, cell line lysate: HEK293T
# Description: (§1)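 IA-DTB competitive cysteine chemoproteomics in HEK293T RIPA lysate. Lysates were treated with compound 29 or 30 at 50 or 200 µM for 4 h, then IA-DTB (500 µM, 1 h), trypsin-digested, NeutrAvidin-enriched and analysed by diaPASEF. Competition ratio = intensity DMSO / intensity compound (n=4 treated, n=64 DMSO); binding: mean log2 CR ≥ 1 and p ≤ 0.05 plus QC filters. Target is the cysteine site.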
# [2] = compound: ClCC(=O)N[C@H]1CCCc2ccccc12; test: as above; settings: treatment time: 4 h, cell line lysate: HEK293T
# Description: as §1
Target,log2 mean competition ratio ([1]; 50 µM),log2 mean competition ratio ([1]; 200 µM),log2 mean competition ratio ([2]; 50 µM),log2 mean competition ratio ([2]; 200 µM)
SLC12A9 C771 (UniProt Q9BXP2),0.634,0.0213,-0.0634,0.226
SLC27A2 C301 (UniProt O14975),-0.437,-0.0514,-0.374,0.0721
SNRNP200 C502 (UniProt O75643),-0.19,-0.13,-0.267,-0.171
SNRNP200 C1580 (UniProt O75643),-0.0879,-0.0898,-0.00341,-0.226
SLC25A5 C57 (UniProt P05141),-0.0216,-0.0735,0.0501,-0.0192
SLC39A14 C290 (UniProt Q15043),-0.366,0.0668,-0.734,-0.183
SLC31A1 C189 (UniProt O15431),-0.0705,0.15,-0.776,0.108
SMAD2 C70 (UniProt Q15796),0.133,0.0976,0.0898,0.119
SMARCAL1 C62 (UniProt Q9NZC9),0.316,0.158,0.134,0.206
SLC12A9 C911 (UniProt Q9BXP2),0.18,8.21e-05,0.355,-0.0263
SOGA1 C499 (UniProt O94964),-0.312,0.153,-0.241,0.0423
SLC1A4 C355 (UniProt P43007),-0.054,0.429,-0.255,0.375
SLC35F6 C36 (UniProt Q8N357),0.0176,-0.149,-0.00218,-0.1
SLC25A4 C160 (UniProt P12235),-0.0388,0.291,-0.0251,0.311
SMAD1 C121 (UniProt Q15797),0.0831,0.1,0.27,0.141
SMU1 C298 (UniProt Q2TAY7),-0.0818,-0.204,0.0814,-0.134
SLC7A1 C21 (UniProt P30825),0.0286,0.0463,-0.036,0.0898
SLC2A12 C601,-0.0752,0.229,-0.209,0.364
SLC38A7 C30 (UniProt Q9NVC3),-0.0476,0.0701,-0.492,0.0275
SKI C449 (UniProt P12755),-0.24,0.0889,-0.465,0.0397
SNTB2 C450 (UniProt Q13425),-0.235,-0.246,-0.0293,-0.213
SKP1 C120 (UniProt P63208),-0.0864,-0.144,0.313,0.0852
SMARCAD1 C106 (UniProt Q9H4L7),-0.245,-0.38,0.591,-0.38
SLC27A2 C414 (UniProt O14975),-0.337,0.0177,-0.335,-0.0406

Target,log2 mean competition ratio ([1]; 50 µM),log2 mean competition ratio ([1]; 200 µM),log2 mean competition ratio ([2]; 50 µM),log2 mean competition ratio ([2]; 200 µM)
SKA1 C10 (UniProt Q96BD8),-0.4,0.272,-0.763,0.148
SMAD1 C378 (UniProt Q15797),0.0311,-0.0574,0.205,-0.14
SON C2070 (UniProt P18583),0.472,0.0349,0.591,0.0439
SLC4A1AP C723 (UniProt Q9BWU0),-0.0314,0.00295,0.206,0.0974
SMARCAD1 C861 (UniProt Q9H4L7),0.197,-0.0298,-0.122,-0.0102
SMG8 C248 (UniProt Q8ND04),-0.194,-0.128,0.226,-0.0441
SMARCA2 C1296 (UniProt P51531),-0.188,-0.0991,0.125,0.0728
SLC30A9 C141 (UniProt Q6PML9),0.164,-0.161,0.581,0.0071
SNRNP40 C291 (UniProt Q96DI7),-0.17,0.0784,-0.275,0.103
SMG1 C1929 (UniProt Q96Q15),-0.0959,-0.386,0.127,-0.324
SMU1 C383 (UniProt Q2TAY7),-0.114,-0.0311,-0.299,-0.114
SLU7 C455 (UniProt O95391),-0.243,0.0766,-0.454,-0.16
SLC7A1 C628 (UniProt P30825),-0.232,0.403,-0.312,0.422
SMPD4 C579 (UniProt Q9NXE4),0.058,0.196,-0.0418,0.188
SLAIN1 C449 (UniProt Q8ND83),0.137,-0.199,-0.119,0.134
SLC2A13 C39 (UniProt Q96QE2),-0.353,-0.0231,0.457,-0.0429
SNRPD2 C63,0.452,0.207,0.668,0.105
SNAP47 C246 (UniProt Q5SQN1),-0.126,-0.0588,0.23,-0.00801
SLBP C15 (UniProt Q14493),0.0233,0.258,-0.0392,0.313
SORD C106 (UniProt Q00796),-0.182,0.124,-0.101,0.338
SNIP1 C299 (UniProt Q8TAD8),-0.0792,0.0211,0.0333,-0.0539
SLC25A20 C155 (UniProt O43772),-0.0412,0.161,0.239,0.205
SMOC1 C315 (UniProt Q9H4F8),0.144,-0.259,-0.68,0.174

# Pulled one by one from the entries so far:
Target,log2 mean competition ratio ([1]; 50 µM),log2 mean competition ratio ([1]; 200 µM),log2 mean competition ratio ([2]; 50 µM),log2 mean competition ratio ([2]; 200 µM)
SMOC1 C315 (UniProt Q9H4F8),0.144,-0.259,-0.68,0.174
SNAP47 C246 (UniProt Q5SQN1),-0.126,-0.0588,0.23,-0.00801
